The supplement of paper PMC8007513
Some of the results follow. Single values are uncertain, as repeats are few or missing.

Each compound was assayed on Saccharomyces cerevisiae BY4743 (assay: growth (OD600) relative to untreated control; higher = less growth inhibition). Conditions: compound concentration: 133 uM; 20 h.
Protocol: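 NMCCC compounds (133 uM, no IPBC) tested alone against Saccharomyces cerevisiae BY4743 in YPD, 96-well plates, starting OD600 ~0.1. Growth was read as OD600 at 20 h and expressed as % of the untreated control. Single pass.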

Row | SMILES | growth [%]
1 | COc1ccc(C2c3cc(OC)c(OC)cc3CCN2C(=O)C(C)(C)C)cc1OC (stereo not given) | 104
2 | O=C(COC(=O)c1ncc(Cl)c(Cl)c1Cl)NC(=O)c1ccccc1 | 97.1
3 | COC(=O)CC(NC(=O)c1sc(-c2ccccn2)nc1C)c1ccc(OC)c(OC)c1 (stereo not given) | 101
4 | CN(CCO)c1nc2c(c(=O)n(Cc3ccc(Cl)cc3)c(=O)n2C)n1C | 110
5 | CCOc1ccccc1-n1nnnc1SCC(=O)NC(=O)Cc1ccccc1 | 95.2
6 | Cc1ccc(C)c(OCC(=O)N2CCc3ccccc3C2)c1 | 89.7
7 | Cc1nc(O)c(C#N)c(C)c1CCC(=O)N(C)Cc1ccc(OC(F)F)cc1 | 105
8 | CCS\C1=N\C2=CC=CC=C2C(=O)N1C3CCOC(C)(C)C3 (stereo not given) | 86.7
9 | COc1cc(OC)c(NC(=O)CCS(=O)(=O)c2ccc3c(c2)NC(=O)C(C)S3)cc1Cl (stereo not given) | 89.2
10 | Cc1cc(C)cc(N(CCC#N)C(=O)COC(=O)CNC(=O)c2ccc(Br)o2)c1 | 106
11 | CC(=O)NC1C(=O)N(CCS(=O)(=O)c2ccccc2)c2ccc(F)cc21 (stereo not given) | 107
12 | CCOC(=O)\C1=C(/COC(=O)C2=CC(=NC3=C2C(=NO3)C)C)NC(=O)NC1 | 111
13 | Cc1cc(C)n(CCNC(=O)C(=O)Nc2ccc3c(c2)nc(C(F)(F)F)n3C)n1 | 91.9
14 | Nc1nc(SCc2c(Cl)cccc2Cl)c2[nH]cnc2n1 | 104
15 | CCCC(C(=O)Nc1cc(OC)c(OC)c(OC)c1)N1Cc2ccccc2C1=O (stereo not given) | 97.4

An excerpt of these results, with each value named.
CCS\C1=N\C2=CC=CC=C2C(=O)N1C3CCOC(C)(C)C3 (stereo not given)
  growth [%]: 86.7
Nc1nc(SCc2c(Cl)cccc2Cl)c2[nH]cnc2n1
  growth [%]: 104
